Data: article PMC6925144, “A prospective compound screening contest identified broader inhibitors for Sirtuin 1” (Scientific Reports, 2019)
Over roughly 3,200 compounds, “TSA(with NAD+) / Primary screening (TSA) / delta Tm (K)” has its median near -0.04; the highest 2% begin near 0.37. Some of the results follow.

Amino acid sequences for entries named in this document (tags omitted). Residues count along the entry.
UniProt Q96EB6, 2-747 limits assumed: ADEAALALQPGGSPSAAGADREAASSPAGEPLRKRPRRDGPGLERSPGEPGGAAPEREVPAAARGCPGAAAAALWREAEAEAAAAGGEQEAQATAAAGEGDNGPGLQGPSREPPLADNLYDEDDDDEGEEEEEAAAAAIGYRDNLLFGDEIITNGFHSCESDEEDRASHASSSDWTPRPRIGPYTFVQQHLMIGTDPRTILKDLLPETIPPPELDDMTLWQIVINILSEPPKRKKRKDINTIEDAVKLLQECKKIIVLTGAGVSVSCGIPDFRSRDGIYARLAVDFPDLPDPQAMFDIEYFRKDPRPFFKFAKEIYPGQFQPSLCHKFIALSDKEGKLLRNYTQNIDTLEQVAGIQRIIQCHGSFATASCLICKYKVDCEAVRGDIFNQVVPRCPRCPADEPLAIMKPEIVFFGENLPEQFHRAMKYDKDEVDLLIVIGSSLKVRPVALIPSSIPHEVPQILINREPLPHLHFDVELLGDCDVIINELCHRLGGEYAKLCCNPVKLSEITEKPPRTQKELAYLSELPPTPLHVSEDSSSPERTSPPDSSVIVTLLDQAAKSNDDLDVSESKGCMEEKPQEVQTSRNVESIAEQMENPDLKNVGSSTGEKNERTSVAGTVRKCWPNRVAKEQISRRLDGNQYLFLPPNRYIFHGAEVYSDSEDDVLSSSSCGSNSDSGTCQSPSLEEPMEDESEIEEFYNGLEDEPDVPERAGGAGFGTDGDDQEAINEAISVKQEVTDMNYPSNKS

Molecular target: NAD-dependent deacetylase Sirtuin 1 (human, UniProt Q96EB6)
Assay: primary screen, delta tm
Set-up: single well (n = 1, as 'the same TSA')
Conditions: 10 µM

**Q.** With O=c1onc(-c2cnccn2)n1Cc1nc2cc([N+](=O)[O-])ccc2o1 as the compound, how does the “TSA(with NAD+) / Primary screening (TSA) / delta Tm (K)” value read?
**A.** 0.02 K

**Q.** For Cc1ccnc(NC(=O)C2CCN(c3ncnc4scc(-c5ccc(F)cc5)c34)CC2)c1, which “TSA(with NAD+) / Primary screening (TSA) / delta Tm (K)” value is on record?
**A.** -0.05 K

**Q.** How did the “TSA(with NAD+) / Primary screening (TSA) / delta Tm (K)” value turn out when C=CCn1c(SCC(=O)Nc2ccc(C(N)=O)cc2)nnc1-c1ccncc1 was run?
**A.** 0.07 K

**Q.** With CCC(C)(C)C(=O)N1CCc2cnccc21 as the compound, how does the “TSA(with NAD+) / Primary screening (TSA) / delta Tm (K)” value read?
**A.** -0.01 K

**Q.** How did the “TSA(with NAD+) / Primary screening (TSA) / delta Tm (K)” value turn out when Cc1cc(C(=O)COC(=O)C23CC4CC(CC(Cl)(C4)C2)C3)c(C)n1Cc1ccc2c(c1)OCO2 was run?
**A.** -0.03 K

**Q.** With COC(OC)C(C)N (stereo not shown) as the compound, how does the “TSA(with NAD+) / Primary screening (TSA) / delta Tm (K)” value read?
**A.** 0.11 K

**Q.** Cc1c(C)n(-c2ccc(Cl)cc2)c2ncnc(N)c12 was tested. Which “TSA(with NAD+) / Primary screening (TSA) / delta Tm (K)” value did it give?
**A.** -0.11 K

**Q.** Which “TSA(with NAD+) / Primary screening (TSA) / delta Tm (K)” value does the source give for COc1cc(CN(C)C(=O)c2ccc(CNC(N)=O)cc2)ccc1OCc1ccccc1 here?
**A.** -0.03 K

**Q.** How did the “TSA(with NAD+) / Primary screening (TSA) / delta Tm (K)” value turn out when Cc1nc2c3ccccc3nc(SCc3nc(N)nc(Nc4ccc(F)cc4)n3)n2n1 was run?
**A.** 0.22 K

**Q.** How did the “TSA(with NAD+) / Primary screening (TSA) / delta Tm (K)” value turn out when CC1CC1CN (stereo not shown) was run?
**A.** -0.09 K

**Q.** For O=C(COc1ncnc2sc3c(c12)CCCC3)N1CCc2ccccc21, which “TSA(with NAD+) / Primary screening (TSA) / delta Tm (K)” value is on record?
**A.** 0.26 K

**Q.** How did the “TSA(with NAD+) / Primary screening (TSA) / delta Tm (K)” value turn out when CC1(C)NC(=O)N(CC(=O)Nc2sc3c(c2-c2nc4ccccc4[nH]2)CCCC3)C1=O was run?
**A.** 0.37 K

**Q.** With Cc1ccc(N(C)S(=O)(=O)c2cccc(C(=O)Nc3cccc(C#N)c3)c2)cc1 as the compound, how does the “TSA(with NAD+) / Primary screening (TSA) / delta Tm (K)” value read?
**A.** 0.28 K

**Q.** With CC1CCC/C(=N/NC(=O)c2ccc(Cn3nnc(-c4ccccc4)n3)cc2)C1 (stereo not shown) as the compound, how does the “TSA(with NAD+) / Primary screening (TSA) / delta Tm (K)” value read?
**A.** 0.05 K

**Q.** Which “TSA(with NAD+) / Primary screening (TSA) / delta Tm (K)” value does the source give for Cc1ccc(N(C)S(=O)(=O)c2cccc(C(=O)OC3CCOC3=O)c2)cc1 (stereo not shown) here?
**A.** 0.18 K

**Q.** How did the “TSA(with NAD+) / Primary screening (TSA) / delta Tm (K)” value turn out when CNC(=O)COc1cc(F)ccc1F was run?
**A.** 0.01 K

**Q.** Which “TSA(with NAD+) / Primary screening (TSA) / delta Tm (K)” value does the source give for Cc1cc(C(=O)COC(=O)C23CC4CC(CC(O)(C4)C2)C3)c(C)n1-c1cccc(S(=O)(=O)N2CCOCC2)c1 here?
**A.** 0.01 K

**Q.** How did the “TSA(with NAD+) / Primary screening (TSA) / delta Tm (K)” value turn out when NC(=O)C1CCN(c2ncnc3c2c(-c2ccccc2)cn3-c2cccc(C(F)(F)F)c2)CC1 was run?
**A.** -0.02 K

**Q.** CNC(=O)CCNc1ccc2nnc(C(F)(F)F)n2n1 was tested. Which “TSA(with NAD+) / Primary screening (TSA) / delta Tm (K)” value did it give?
**A.** 0.08 K

**Q.** CCOC(=O)/C=C/C(=O)OCC(=O)N1N=C2/C(=C\c3ccc(OC)cc3)CCCC2C1c1ccc(OC)cc1 (stereo not shown) was tested. Which “TSA(with NAD+) / Primary screening (TSA) / delta Tm (K)” value did it give?
**A.** 0.02 K

**Q.** With CSc1cccc(NC(=O)c2cccc(S(=O)(=O)N(C)c3ccc(C)cc3)c2)c1 as the compound, how does the “TSA(with NAD+) / Primary screening (TSA) / delta Tm (K)” value read?
**A.** 0.19 K

**Q.** With N#Cc1ccc2[nH]c3c(c2c1)CCCC3 as the compound, how does the “TSA(with NAD+) / Primary screening (TSA) / delta Tm (K)” value read?
**A.** 0.09 K

**Q.** How did the “TSA(with NAD+) / Primary screening (TSA) / delta Tm (K)” value turn out when NC(=O)COC(=O)c1ccc(SCc2cn3ccccc3n2)cc1 was run?
**A.** -0.19 K

**Q.** CC(NCc1ccncc1)c1ccccc1 (stereo not shown) was tested. Which “TSA(with NAD+) / Primary screening (TSA) / delta Tm (K)” value did it give?
**A.** -0.13 K

**Q.** Which “TSA(with NAD+) / Primary screening (TSA) / delta Tm (K)” value does the source give for CCC(N)COC (stereo not shown) here?
**A.** -0.11 K

**Q.** With COc1cc(C(C)=O)ccc1COc1ccc(C(=O)OC(C)C(=O)NC23CC4CC(CC(C4)C2)C3)cc1OC (stereo not shown) as the compound, how does the “TSA(with NAD+) / Primary screening (TSA) / delta Tm (K)” value read?
**A.** 0.09 K

**Q.** For Fc1cccc2[nH]c(CSc3nccn3Cc3ccccn3)nc12, which “TSA(with NAD+) / Primary screening (TSA) / delta Tm (K)” value is on record?
**A.** -0.16 K

**Q.** Cc1cc2ncn(CC(NC(=O)C3CC3c3cccnc3)C3CC3)c2cc1C (stereo not shown) was tested. Which “TSA(with NAD+) / Primary screening (TSA) / delta Tm (K)” value did it give?
**A.** 0.01 K

**Q.** How did the “TSA(with NAD+) / Primary screening (TSA) / delta Tm (K)” value turn out when CCOc1cc(CN(C)C(C)C(=O)Nc2cc(C)no2)ccc1OC(F)F (stereo not shown) was run?
**A.** -0.09 K

**Q.** COc1cc(CN(C)C(=O)c2cccc(S(C)(=O)=O)c2)ccc1OCc1ccccc1 was tested. Which “TSA(with NAD+) / Primary screening (TSA) / delta Tm (K)” value did it give?
**A.** 0.08 K

**Q.** With c1ccc(-n2ncc3c(-n4ccnc4)ncnc32)cc1 as the compound, how does the “TSA(with NAD+) / Primary screening (TSA) / delta Tm (K)” value read?
**A.** -0.11 K

**Q.** Which “TSA(with NAD+) / Primary screening (TSA) / delta Tm (K)” value does the source give for OCC1(Nc2ncnc3ccsc23)CCC1 here?
**A.** -0.18 K

**Q.** With CCOC(=O)c1c(C2CC2)csc1NC(=O)COC(=O)C1CC(=O)N(c2ccccc2C(C)CC)C1 (stereo not shown) as the compound, how does the “TSA(with NAD+) / Primary screening (TSA) / delta Tm (K)” value read?
**A.** -0.25 K

**Q.** How did the “TSA(with NAD+) / Primary screening (TSA) / delta Tm (K)” value turn out when O=C(CN1CCN(c2ncnc3ccsc23)CC1)Nc1ccccc1Cl was run?
**A.** -0.03 K

**Q.** With COc1cccc(C2C(C(=O)c3ccco3)=C(O)C(=O)N2CCCN2CCOCC2)c1 (stereo not shown) as the compound, how does the “TSA(with NAD+) / Primary screening (TSA) / delta Tm (K)” value read?
**A.** -0.09 K

**Q.** With CCCN(C(=O)CSc1nnc(NCc2ccco2)s1)C1=CCCCC1 as the compound, how does the “TSA(with NAD+) / Primary screening (TSA) / delta Tm (K)” value read?
**A.** 0.15 K

**Q.** How did the “TSA(with NAD+) / Primary screening (TSA) / delta Tm (K)” value turn out when c1ccc2c3c([nH]c2c1)C1(CCCCC1)NCC3 was run?
**A.** 0.01 K

**Q.** With O=C(Cn1cnc2ccccc2c1=O)Nc1ccc(N2CCN(Cc3ccccc3)CC2)cc1 as the compound, how does the “TSA(with NAD+) / Primary screening (TSA) / delta Tm (K)” value read?
**A.** -0.16 K

**Q.** Which “TSA(with NAD+) / Primary screening (TSA) / delta Tm (K)” value does the source give for O=c1oc2cc(Cl)ccc2n1Cc1nc(-c2ccco2)no1 here?
**A.** 0.07 K

**Q.** For CN(c1ccccc1)S(=O)(=O)c1cccc(C(=O)Nc2ccccc2-c2nc3ccccc3[nH]2)c1, which “TSA(with NAD+) / Primary screening (TSA) / delta Tm (K)” value is on record?
**A.** 0.38 K

**Q.** With Cc1ccc(N(C)S(=O)(=O)c2cccc(C(=O)OC(C)C(N)=O)c2)cc1 (stereo not shown) as the compound, how does the “TSA(with NAD+) / Primary screening (TSA) / delta Tm (K)” value read?
**A.** -0.08 K

**Q.** Which “TSA(with NAD+) / Primary screening (TSA) / delta Tm (K)” value does the source give for O=C(NCC(c1ccccc1)c1c[nH]c2ccccc12)C1=COCCO1 (stereo not shown) here?
**A.** -0.03 K

**Q.** CCc1sc(C(=O)Nc2cc(C(N)=O)ccc2N2CCCC2)cc1C was tested. Which “TSA(with NAD+) / Primary screening (TSA) / delta Tm (K)” value did it give?
**A.** -0.09 K

**Q.** With NC(=O)c1ccc(Cl)c(NC(=O)c2nn(-c3ccccc3)c3c2CCC3)c1 as the compound, how does the “TSA(with NAD+) / Primary screening (TSA) / delta Tm (K)” value read?
**A.** 0.06 K

**Q.** With CCCCn1c(N)c(N(CCOC)C(=O)c2cccc(S(=O)(=O)N(C)c3ccc(C)cc3)c2)c(=O)[nH]c1=O as the compound, how does the “TSA(with NAD+) / Primary screening (TSA) / delta Tm (K)” value read?
**A.** -0.12 K

**Q.** For Cc1ccc(C)c(N2C(=O)c3ccc(C(=O)Nc4ccc(Oc5ncccn5)cc4)cc3C2=O)c1, which “TSA(with NAD+) / Primary screening (TSA) / delta Tm (K)” value is on record?
**A.** 0.06 K
